Experiment [1] concerns the target Regulator of Chromosome Condensation 2 (human (endogenous in DU145)) (UniProt Q9P258). The experiment in a line: co-IP; endogenous proteins in DU145 cells; IP with either anti-RCC2 or anti-vimentin antibodies, protein A/G agarose beads.
The target of the next experiment is T1, CD24 (human) (UniProt P25063).
T1 sequence: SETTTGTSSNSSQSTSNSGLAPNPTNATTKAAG
The experiment in a line: co-IP; HEK293T cells transiently coexpressing CD24 and RCC2; reciprocal IP with anti-CD24 and anti-RCC2 antibodies, protein A/G agarose beads.

Chains of the proteins cited; added tags and fusions are not shown.
UniProt Q9P258: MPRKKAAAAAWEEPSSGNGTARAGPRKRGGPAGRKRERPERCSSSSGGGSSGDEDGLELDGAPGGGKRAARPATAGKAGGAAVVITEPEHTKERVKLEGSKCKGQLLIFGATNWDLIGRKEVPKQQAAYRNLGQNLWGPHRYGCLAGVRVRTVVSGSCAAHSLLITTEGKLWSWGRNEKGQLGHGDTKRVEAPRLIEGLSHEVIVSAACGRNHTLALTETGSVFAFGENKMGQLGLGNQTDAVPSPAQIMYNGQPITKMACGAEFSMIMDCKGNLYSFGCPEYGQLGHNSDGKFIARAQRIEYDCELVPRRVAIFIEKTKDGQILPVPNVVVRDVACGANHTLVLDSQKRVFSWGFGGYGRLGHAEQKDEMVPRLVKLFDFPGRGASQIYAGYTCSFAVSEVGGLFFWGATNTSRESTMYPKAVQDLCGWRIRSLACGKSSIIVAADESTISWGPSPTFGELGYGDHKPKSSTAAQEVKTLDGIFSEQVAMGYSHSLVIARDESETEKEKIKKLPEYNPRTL
UniProt P08670: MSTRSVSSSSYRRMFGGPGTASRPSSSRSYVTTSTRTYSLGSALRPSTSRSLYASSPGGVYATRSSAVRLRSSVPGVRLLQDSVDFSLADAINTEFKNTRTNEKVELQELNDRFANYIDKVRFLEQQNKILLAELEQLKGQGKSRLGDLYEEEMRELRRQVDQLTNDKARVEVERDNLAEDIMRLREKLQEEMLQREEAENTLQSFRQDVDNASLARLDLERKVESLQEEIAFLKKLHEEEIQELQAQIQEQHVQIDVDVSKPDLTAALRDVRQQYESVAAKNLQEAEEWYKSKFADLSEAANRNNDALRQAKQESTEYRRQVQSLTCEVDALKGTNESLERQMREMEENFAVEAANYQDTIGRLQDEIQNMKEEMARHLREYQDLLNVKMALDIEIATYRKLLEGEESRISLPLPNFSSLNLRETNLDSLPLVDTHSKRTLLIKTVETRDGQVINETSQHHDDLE

The record followed here is article PMC12520681.

Results are given in words; binding and its absence hold for the method and conditions named. Binding seen in cells or lysates may run through a third protein. Some results given as binding are weak or reduced against the parent protein; the word gives no strength.

On to Vimentin (from UniProt P08670 1-466), for which the binding entry in experiment [1] is listed as “binds”.
For the substance “Regulator of Chromosome Condensation 2 (from UniProt Q9P258 1-522)”, in the experiment with CD24 (human), the binding result is on record as “binds”.
